From the supplement of paper PMC4807443
Structures can show the parent of a compound that is named as a salt. Some of the results follow. The numbers are fractions of the control, whatever unit the source prints. Most entries show no effect beyond the scatter of the controls.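 MIN6, a mouse insulinoma beta-cell line, stably carries a lentiviral reporter where Pdx1 and Ins1 promoters each drive a nuclear fluorescent protein; Hoechst staining and automated imaging counted cells. Drugs were candidate hits if Ins1 promoter readout exceeded two median absolute deviations from DMSO controls while Pdx1 activity stayed near normal.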

These molecules were tested on MIN6 (assay: % Pdx1+ Ins1+ (double-positive, mature) cells relative to DMSO control (fold of DMSO control); higher = more mature Ins1 promoter-active cells). Conditions: 8.5 µM; 48 h; glucose 5 mM.

| SMILES | % Pdx1+ Ins1+ |
| --- | --- |
| CCCOc1ccccc1-c1nc2[nH]nnc2c(=O)[nH]1 [Zaprinast] | 0.901 |
| CC#C[C@]1(O)CC[C@H]2[C@@H]3CCC4=CC(=O)CCC4=C3[C@@H](c3ccc(N(C)C)cc3)C[C@@]21C [Mifepristone] | 0.843 |
| COc1ccc(Cl)cc1C(=O)NCCc1ccc(S(=O)(=O)NC(=O)NC2CCCCC2)cc1 [Glibenclamide] | 1.08 |
| C[C@@H]1C/C=C/C=C/C=C/C=C/[C@H](O[C@@H]2O[C@H](C)[C@@H](O)[C@H](N)[C@@H]2O)C[C@@H]2O[C@](O)(C[C@@H](O)C[C@H]3O[C@@H]3/C=C/C(=O)O1)C[C@H](O)[C@H]2C(=O)O [Natamycin] | 0.887 |
| CC(C(O)c1ccc(O)cc1)N1CCC(Cc2ccccc2)CC1 (stereo unspecified) [Ifenprodil tartrate] | 1.07 |
| CN(C(=O)CN(CCO)CC(=O)N(C)C(C)(C)Cc1ccccc1)C(C)(C)Cc1ccccc1 [Oxethazaine] | 1.08 |
| Cc1cc(C)nc(NS(=O)(=O)c2ccc(N)cc2)n1 [Sulfamethazine sodium salt] | 0.983 |
| COc1cc(NS(=O)(=O)c2ccc(N)cc2)ncn1 [Sulfamonomethoxine] | 0.999 |
| NC[C@H]1O[C@H](O[C@H]2[C@H](O)[C@@H](O[C@H]3O[C@H](CO)[C@@H](O)[C@H](N)[C@H]3O)[C@H](N)C[C@@H]2N)[C@H](N)C[C@@H]1O [Tobramycin] | 0.951 |
| C=CCOc1ccccc1OCC(O)CNC(C)C (stereo unspecified) [Oxprenolol hydrochloride] | 0.901 |
| Cc1c(N)c(=O)n(-c2ccccc2)n1C [Ampyrone] | 1.03 |
| CCN(CC)CCOCCOC(=O)C1(c2ccccc2)CCCC1 [Carbetapentane citrate] | 0.89 |
| Cc1cc(C(C)(C)C)cc(C)c1CC1=NCCN1 [Xylometazoline hydrochloride] | 0.846 |
| CCN(CCCCOC(=O)c1ccc(OC)c(OC)c1)C(C)Cc1ccc(OC)cc1 (stereo unspecified) [Mebeverine hydrochloride] | 1.02 |
| CC(C)(CO)[C@@H](O)C(=O)NCCC(=O)O [Pantothenic acid calcium salt monohydrate] | 1.05 |
| COc1cc2nc(N3CCN(C(=O)C4COc5ccccc5O4)CC3)nc(N)c2cc1OC (stereo unspecified) [Doxazosin mesylate] | 0.895 |
| O=c1c(O)c(-c2ccc(O)cc2)oc2cc(O)cc(O)c12 [Kaempferol] | 0.809 |
| CCCCC1C(=O)N(c2ccccc2)N(c2ccc(O)cc2)C1=O (stereo unspecified) [Oxyphenbutazone] | 0.923 |
| N[C@H]1CONC1=O [(S)-(-)-Cycloserine] | 0.911 |
| CC1=CC(=O)c2ccccc2C1=O [Menadione] | 0.4 |
| CC(=O)/N=c1/sc(S(N)(=O)=O)nn1C [Methazolamide] | 0.998 |
| N=C(N)N1CCc2ccccc2C1 [Debrisoquin sulfate] | 1.03 |
| CCCCOC(=O)c1ccc(O)cc1 [Butylparaben] | 0.859 |
| O=C(O)Cc1cc(I)c(Oc2ccc(O)c(I)c2)c(I)c1 [Tiratricol, 3,3',5-triiodothyroacetic acid] | 1.19 |
| O=C(CCCCC(=O)Nc1c(I)cc(I)c(C(=O)O)c1I)Nc1c(I)cc(I)c(C(=O)O)c1I [Iodipamide] | 0.916 |
| C[C@@H]1O[C@@H](O[C@H]2[C@H](Oc3cc(O)c4c(c3)O[C@H](c3ccc(O)cc3)CC4=O)O[C@H](CO)[C@@H](O)[C@@H]2O)[C@H](O)[C@H](O)[C@H]1O [Naringin hydrate] | 0.979 |

2 of the compounds above, with tabs:
SMILES	% Pdx1+ Ins1+
Cc1cc(C)nc(NS(=O)(=O)c2ccc(N)cc2)n1 [Sulfamethazine sodium salt]	0.983
COc1cc(NS(=O)(=O)c2ccc(N)cc2)ncn1 [Sulfamonomethoxine]	0.999

Later entries

| SMILES | % Pdx1+ Ins1+ |
| --- | --- |
| N=C(N=C(N)N)N1CCOCC1 [Moroxidine hydrochloride] | 1.09 |
| CC(=O)Nc1ccc(OCC(O)CNC(C)C)cc1 (stereo unspecified) [Practolol] | 0.935 |
| CCCC(=O)Nc1ccc(OCC(O)CNC(C)C)c(C(C)=O)c1 (stereo unspecified) [Acebutolol hydrochloride] | 1.05 |
| O=C(Nc1ccccc1)OCC(CN1CCCCC1)OC(=O)Nc1ccccc1 (stereo unspecified) [Diperodon hydrochloride] | 0.993 |
| Nc1nc(=O)[nH]cc1F [Flucytosine] | 1.02 |
| CC(=O)O[C@]1(C(C)=O)CC[C@H]2[C@@H]3C=C(C)C4=CC(=O)CC[C@]4(C)[C@H]3CC[C@@]21C [Megestrol acetate] | 0.95 |
| Cc1cccc(C)c1NC(=O)CN1CCN(CCCC(c2ccc(F)cc2)c2ccc(F)cc2)CC1 [Lidoflazine] | 0.892 |
| CC(C)(C)NCC(O)COc1cccc2c1CC(O)C(O)C2 (stereo unspecified) [Nadolol] | 1.13 |
| CC1=C(C(=O)O)N2C(=O)[C@@H](NC(=O)[C@H](N)c3ccccc3)[C@H]2SC1 [Cephalexin monohydrate] | 0.934 |
| COc1ccc2c(c1)c(CC(=O)OCC(=O)O)c(C)n2C(=O)c1ccc(Cl)cc1 [Acemetacin] | 1.08 |
| Cc1nccn1CC1CCc2c(c3ccccc3n2C)C1=O (stereo unspecified) [Ondansetron Hydrochloride] | 0.99 |
| NC(=O)c1cc[n+](CC2=C(C(=O)[O-])N3C(=O)[C@@H](NC(=O)Cc4cccs4)[C@H]3SC2)cc1 [Cefalonium] | 0.913 |
| O=C1C(O)=C(O)C(=O)C(O)=C1O [Tetrahydroxy-1,4-quinone monohydrate] | 0.984 |
| COc1ccc2cc3[n+](cc2c1OC)CCc1cc2c(cc1-3)OCO2 [Berberine chloride] | 0.482 |
| COc1cc(NS(=O)(=O)c2ccc(N)cc2)nc(OC)n1 [Sulfadimethoxine] | 1.02 |
| CC[N+](CC)(CC(=O)Nc1c(C)cccc1C)Cc1ccccc1 [Denatonium benzoate] | 1.05 |
| C=N[C@@H](C(=O)N[C@@H]1C(=O)N2[C@@H]1SC(C)(C)[C@@H]2C(=O)O)c1ccccc1 [Metampicillin sodium salt] | 1.13 |
| COc1cc2ccc(=O)oc2cc1O [Scopoletin] | 0.86 |
| NCCC(=O)NCCc1c[nH]cn1 [Carcinine] | 1.07 |
| Cc1cccc(Nc2ccncc2S(=O)(=O)NC(=O)NC(C)C)c1 [Torsemide] | 0.945 |
| CC(C)NC(=N)NC(=N)Nc1ccc(Cl)cc1 [Proguanil hydrochloride] | 0.214 |
| Cc1nnc(SCC2=C(C(=O)O)N3C(=O)[C@@H](NC(=O)Cn4cnnn4)[C@H]3SC2)s1 [Cefazolin sodium salt] | 0.968 |
| O=c1[nH]c(=O)n([C@H]2C[C@H](O)[C@@H](CO)O2)cc1C(F)(F)F [Trifluridine] | 0.521 |
| COc1ccc2c3c1O[C@H]1C[C@@H](O)C=C[C@@]31CCN(C)C2 [Galanthamine hydrobromide] | 0.828 |
| CCCCCCCCNC(C)C(O)c1ccc(SC(C)C)cc1 (stereo unspecified) [Suloctidil] | 0.976 |
| CC(=O)CC(c1ccc([N+](=O)[O-])cc1)c1c(O)c2ccccc2oc1=O (stereo unspecified) [Acenocoumarol] | 1.04 |

Reprinted at random: 4 records from the list.

| SMILES | % Pdx1+ Ins1+ |
| --- | --- |
| O=C1C(O)=C(O)C(=O)C(O)=C1O [Tetrahydroxy-1,4-quinone monohydrate] | 0.984 |
| CC(=O)O[C@]1(C(C)=O)CC[C@H]2[C@@H]3C=C(C)C4=CC(=O)CC[C@]4(C)[C@H]3CC[C@@]21C [Megestrol acetate] | 0.95 |
| CC(=O)Nc1ccc(OCC(O)CNC(C)C)cc1 (stereo unspecified) [Practolol] | 0.935 |
| COc1cc2ccc(=O)oc2cc1O [Scopoletin] | 0.86 |

(continued)

| SMILES | % Pdx1+ Ins1+ |
| --- | --- |
| O=C(CCCN1CCC(O)(c2ccc(Cl)cc2)CC1)c1ccc(F)cc1 [Haloperidol] | 0.948 |
| Cc1ccc(C)c(OCCCC(C)(C)C(=O)O)c1 [Gemfibrozil] | 1.01 |
| NC(=O)c1ccc[n+]([C@@H]2O[C@H](COP(=O)([O-])OP(=O)(O)OC[C@H]3O[C@@H](n4cnc5c(N)ncnc54)[C@H](O)[C@@H]3O)[C@@H](O)[C@H]2O)c1 [Nadide] | 0.861 |
| CNCCC=C1c2ccccc2C=Cc2ccccc21 [Norcyclobenzaprine] | 0.775 |
| CN1C(C(=O)Nc2ccccn2)=C(O)c2ccccc2S1(=O)=O [Piroxicam] | 1.18 |
| COCCOC(=O)C1=C(C)NC(C)=C(C(=O)OC(C)C)C1c1cccc([N+](=O)[O-])c1 (stereo unspecified) [Nimodipine] | 0.81 |
| CC1(C)S[C@@H]2[C@H](NC(=O)[C@H](N)c3ccccc3)C(=O)N2[C@H]1C(=O)OC1OC(=O)c2ccccc21 (stereo partly specified) [Talampicillin hydrochloride] | 0.915 |
| NC(=O)OCC(O)COc1ccc(Cl)cc1 (stereo unspecified) [Chlorphensin carbamate] | 1.01 |
| Cc1c(NC(C)C)c(=O)n(-c2ccccc2)n1C [Isopyrin hydrochloride] | 0.846 |
| CCCNC(C)C(=O)Nc1c(C)csc1C(=O)OC (stereo unspecified) [Articaine hydrochloride] | 0.967 |
| NCCc1cc[nH]n1 [Betazole hydrochloride] | 1.03 |
| CC(C[N+](C)(C)C)OC(N)=O (stereo unspecified) [Bethanechol chloride] | 0.868 |
| COc1ccc([C@@H]2Sc3ccccc3N(CCN(C)C)C(=O)[C@@H]2OC(C)=O)cc1 [Diltiazem hydrochloride] | 1.11 |
| Cc1cn([C@H]2C[C@H](N=[N+]=[N-])[C@@H](CO)O2)c(=O)[nH]c1=O [Zidovudine, AZT] | 1.05 |
| COc1ccc2c(c1)C(=O)N(CCc1ccc(S(=O)(=O)NC(=O)NC3CCCCC3)cc1)C(=O)C2(C)C [Gliquidone] | 1.08 |
| CN(C)CCN(Cc1ccc(Cl)cc1)c1ccccn1 [Chloropyramine hydrochloride] | 1.06 |
| O=C(O)CNC(=O)C(CS)Cc1ccccc1 (stereo unspecified) [Thiorphan] | 0.967 |
| CN(C)CCCC1(c2ccc(F)cc2)OCc2cc(C#N)ccc21 (stereo unspecified) [Citalopram Hydrobromide] | 0.731 |
| CN(C)CCC(c1ccc(Cl)cc1)c1ccccn1 (stereo unspecified) [Chlorpheniramine maleate] | 1.14 |
| COc1cc(N)c(Cl)cc1C(=O)NC1CCN(CCCOc2ccc(F)cc2)CC1OC (stereo unspecified) [Cisapride] | 1.05 |
| COC1=CC(=O)C[C@@H](C)[C@]12Oc1c(Cl)c(OC)cc(OC)c1C2=O [Griseofulvin] | 1.12 |
| CC(C)(C)NCC(O)c1ccc(O)c(CO)c1 (stereo unspecified) [Salbutamol] | 1.04 |
| Cc1c(OCC(F)(F)F)ccnc1C[S+]([O-])c1nc2ccccc2[nH]1 (stereo unspecified) [Lansoprazole] | 0.966 |
| COc1cc(N)c(Cl)cc1C(=O)NC1CCN(Cc2ccccc2)CC1 [Clebopride maleate] | 0.85 |
